According to US20240084025A1:
No constants are given. Whether binding was seen depends on the method and setting. Some entries that bind do so weakly or less than the wild type.

By UniProt entry, the sequences of proteins in these tests, tags left out. Residues count along the entry.
UniProt Q07011, residues 24-186: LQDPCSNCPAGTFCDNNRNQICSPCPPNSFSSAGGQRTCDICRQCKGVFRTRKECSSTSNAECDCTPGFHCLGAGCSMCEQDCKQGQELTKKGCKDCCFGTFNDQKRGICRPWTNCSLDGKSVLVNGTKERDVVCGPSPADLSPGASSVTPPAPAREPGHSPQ

Molecular target: human 4-1BB (NCBI Accession No. NP_001552.2) (human) (UniProt Q07011)
Assay: phage ELISA on 4-1BB antigen-coated plates, anti-M13 detection, TMB

B1: full human monoclonal antibody against 4-1BB (Table 1) (antibody, V domains shown)
VH: EVQLLESGGGLVQPGGSLRLSCAASGFTFSSYDMSWVRQAPGKGLEWVSWISYSGGSIYYADSVKGRFTISRDNSKNTLYLQMNSLRAEDTAVYYCARDAQRNSMREFDYWGQGTLVTVSS
VL: QSVLTQPPSASGTPGQRVTISCSGSSSNIGNNYVTWYQQLPGTAPKLLIYADSHRPSGVPDRFSGSKSGTSASLAISGLRSEDEADYYCATWDYSLSGYVFGGGTKLTVL
Question: B1 was tested. Which binding did it give?
Answer: Its binding is “binds”.
